Among the test systems are ELA2B (human); ELA3A (human); ELA3B (human); ELAVL3 (human); ELF5 (human); ELMOD1 (human); ELMOD2 (human); ELOVL2 (human); EMILIN1 (human); EMP3 (human); ENO2 (human); ENO3 (human); ENOPH1 (human); ENPP1 (human); ENTPD1 (human); EP400NL (human); EPHA3 (human); EPM2A (human); EPM2AIP1 (human).
Holding throughout (test): protein microarray (ProtoArray v5.0), streptavidin-Alexa Fluor 647
What all share (conditions): 3'-biotin; 20 mM Tris (pH 7.5), 5 mM MgCl2, 100 mM KCl, 0.1% Tween-20, A/T-rich and random oligonucleotide blockers; temperature not stated; high values mean tight binding

The target in another experiment is T1, ELK3 (UniProt P41970).
T1 sequence: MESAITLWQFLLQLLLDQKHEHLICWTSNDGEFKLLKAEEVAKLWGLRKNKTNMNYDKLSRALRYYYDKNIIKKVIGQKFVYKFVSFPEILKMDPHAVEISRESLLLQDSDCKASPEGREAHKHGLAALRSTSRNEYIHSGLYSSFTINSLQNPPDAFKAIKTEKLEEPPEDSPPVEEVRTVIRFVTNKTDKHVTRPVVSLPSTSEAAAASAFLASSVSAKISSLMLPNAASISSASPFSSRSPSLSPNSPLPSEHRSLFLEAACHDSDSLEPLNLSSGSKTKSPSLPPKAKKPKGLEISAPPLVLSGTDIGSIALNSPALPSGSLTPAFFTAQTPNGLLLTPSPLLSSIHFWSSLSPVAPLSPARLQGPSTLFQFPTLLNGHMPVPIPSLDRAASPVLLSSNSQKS

Values joined by “and” are separate entries in the source; they are usually repeats but may differ in a detail not shown here. Equal entries are not always repeated. Some of the results follow. For some assays here: Construct or isoform of the protein are uncertain.

In the case of “GGGAGGCTGAGGCAGG [G4-1 biotinylated (PQS2)]”, the binding signal in the experiment with ELA2B (human) was -0.346 z-score; in the experiment with ELA3A (human), -0.341 z-score and -0.348 z-score; in the experiment with ELA3B (human), -0.278 z-score; with ELAVL3 (human), -0.301 z-score; in the experiment on ELF5 (human), -0.273 z-score; with ELK3, -0.329 z-score. Further, the binding signal is -0.33 z-score in the experiment with ELMOD1 (human); -0.306 z-score in the experiment with ELMOD2 (human); -0.33 z-score in the experiment with ELOVL2 (human); -0.349 z-score in the experiment with EMILIN1 (human); -0.319 z-score in the experiment on EMP3 (human); -0.335 z-score in the experiment on ENO2 (human). Further, the binding signal in the experiment with ENO3 (human) is -0.28 z-score; in the experiment with ENOPH1 (human), -0.254 z-score; in the experiment with ENPP1 (human), -0.304 z-score; in the experiment on ENTPD1 (human), -0.328 z-score; in the experiment on EP400NL (human), -0.356 z-score; in the experiment on EPHA3 (human), -0.33 z-score. For the same sequence, the binding signal in the experiment with EPM2A (human) is -0.319 z-score; in the experiment on EPM2AIP1 (human), -0.3 z-score.

Values taken from article PMC5996148.
